# Patent US5432175A, “Pyridine and pyridine N-oxide derivatives of diaryl methyl piperidines or piperazines, and compositions and methods of use thereof” (Schering Corporation, priority 1993, dated 1995)
# System: PAF-induced platelet aggregation
# Test: Platelet Aggregation Assay (in vitro PAF antagonism, human platelet-rich plasma)
# Type: cell-based
# Settings: 37° C., PAF 1-5×10^-8 M
# Protocol: Platelet Aggregation Assay
# Platelet-activating factor (PAF) causes aggregation of platelets by a receptor-mediated mechanism. Therefore, PAF-induced platelet aggregation provides a simple and convenient assay to screen compounds for PAF antagonism.
# Blood was centrifuged at 110×g for 15 min. and the supernatant platelet-rich plasma (PRP) carefully transferred into a polypropylene tube. Platelet-poor-plasma (PPP) was prepared by centrifuging PRP at 12,000×g for 2 min. PRP was used within 3 hr. of drawing the blood.
# PAF was dissolved in chloroform:methanol (1:1, v/v) at a concentration of 2 mg/ml and stored at -70° C. An aliquot of this solution was transferred to a polypropylene tube and dried under a flow of nitrogen gas. […] The solution was sonicated for 5 min. This stock solution was further diluted to appropriate concentrations in Hepes-saline-BSA buffer. Collagen and adenosine diphosphate (ADP) were purchased as solutions. […]
# When an aggregating agent such as PAF is added to PRP, platelets aggregate. An aggregometer quantifies this aggregation by measuring and comparing light (infra-red) transmission through PPP and PRP. […] Values for inhibition were calculated by comparing rates of aggregation obtained in the absence and the presence of the compound. […]
structure (smiles),measurement,value
CCOC(=O)N1CCC(=C2c3ccc(Cl)cc3CCc3cccnc32)CC1 [reference compound],IC50,175 µM
